# From the supplement of paper PMC8728848
# The list shows a part of the results.
# Columns and labels:
# Assay in all cases: glycan array binding signal (z-score within array); higher = stronger binding
# Settings in all cases: glycan notation: IUPAC condensed, linker removed
# [1] = target: Fuc(a1-2)Gal
# Outline: (§1)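 The Consortium for Functional Glycomics database supplied 3228 glycan arrays, of which those lacking an available protein sequence were dropped. The binding signal, a within-array Z-score, was averaged across arrays of the same protein sequence and across linkers. Negative scores can be read as non-binding.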
# [2] = target: Fuc(a1-2)Gal(b1-3)GalNAc
# Outline: as §1
# [3] = target: Fuc(a1-2)Gal(b1-3)GalNAc(a1-3)[Fuc(a1-2)]Gal(b1-4)Glc
# Outline: as §1
# [4] = target: Fuc(a1-2)Gal(b1-3)GalNAc(a1-3)[Fuc(a1-2)]Gal(b1-4)GlcNAc
# Outline: as §1
# [5] = target: Fuc(a1-2)Gal(b1-3)GalNAc(b1-3)Gal
# Outline: as §1
# [6] = target: Fuc(a1-2)Gal(b1-3)GalNAc(b1-3)Gal(a1-4)Gal(b1-4)Glc
# Outline: as §1
# [7] = target: Fuc(a1-2)Gal(b1-3)GalNAc(b1-4)[Neu5Ac(a2-3)]Gal(b1-4)Glc
# Outline: as §1
# [8] = target: Fuc(a1-2)Gal(b1-3)GlcNAc
# Outline: as §1
# [9] = target: Fuc(a1-2)Gal(b1-3)GlcNAc(b1-2)Man(a1-3)[Fuc(a1-2)Gal(b1-3)GlcNAc(b1-2)Man(a1-6)]Man(b1-4)GlcNAc(b1-4)GlcNAc
# Outline: as §1
# [10] = target: Fuc(a1-2)Gal(b1-3)GlcNAc(b1-3)Gal(b1-4)Glc
# Outline: as §1
# [11] = target: Fuc(a1-2)Gal(b1-3)GlcNAc(b1-3)[Fuc(a1-3)[Gal(b1-4)]GlcNAc(b1-6)]Gal(b1-4)Glc
# Outline: as §1
# [12] = target: Fuc(a1-2)Gal(b1-3)[Fuc(a1-4)]GlcNAc
# Outline: as §1
# [13] = target: Fuc(a1-2)Gal(b1-3)[Fuc(a1-4)]GlcNAc(b1-2)Man(a1-3)[Fuc(a1-2)Gal(b1-3)[Fuc(a1-4)]GlcNAc(b1-2)Man(a1-6)]Man(b1-4)GlcNAc(b1-4)GlcNAc
# Outline: as §1
# [14] = target: Fuc(a1-2)Gal(b1-3)[Fuc(a1-4)]GlcNAc(b1-3)[Fuc(a1-3)[Gal(b1-4)]GlcNAc(b1-6)]Gal(b1-4)Glc
# Outline: as §1
# [15] = target: Fuc(a1-2)Gal(b1-3)[Fuc(a1-4)]GlcNAc(b1-3)[Gal(b1-4)GlcNAc(b1-6)]Gal(b1-4)Glc
# Outline: as §1
# [16] = target: Fuc(a1-2)Gal(b1-4)Glc
# Outline: as §1
# [17] = target: Fuc(a1-2)Gal(b1-4)Glc6S
# Outline: as §1
# [18] = target: Fuc(a1-2)Gal(b1-4)GlcNAc
# Outline: as §1
# [19] = target: Fuc(a1-2)Gal(b1-4)GlcNAc(b1-2)Man(a1-3)[Fuc(a1-2)Gal(b1-4)GlcNAc(b1-2)Man(a1-6)]Man(b1-4)GlcNAc(b1-4)GlcNAc
# Outline: as §1
# [20] = target: Fuc(a1-2)Gal(b1-4)GlcNAc(b1-3)Gal(b1-4)GlcNAc
# Outline: as §1
# [21] = target: Fuc(a1-2)Gal(b1-4)GlcNAc(b1-3)Gal(b1-4)GlcNAc(b1-3)Gal(b1-4)GlcNAc
# Outline: as §1
# [22] = target: Fuc(a1-2)Gal(b1-4)GlcNAc(b1-3)GalNAc
# Outline: as §1
# [23] = target: Fuc(a1-2)Gal(b1-4)GlcNAc6S
# Outline: as §1
# [24] = target: Fuc(a1-2)Gal(b1-4)[Fuc(a1-3)]GlcNAc
# Outline: as §1
# [25] = target: Fuc(a1-2)Gal(b1-4)[Fuc(a1-3)]GlcNAc(b1-2)Man(a1-3)[Fuc(a1-2)Gal(b1-4)[Fuc(a1-3)]GlcNAc(b1-2)Man(a1-6)]Man(b1-4)GlcNAc(b1-4)GlcNAc
# Outline: as §1
# [26] = target: Fuc(a1-2)Gal(b1-4)[Fuc(a1-3)]GlcNAc(b1-3)Gal(b1-4)[Fuc(a1-3)]GlcNAc
# Outline: as §1
# [27] = target: Fuc(a1-2)Gal(b1-4)[Fuc(a1-3)]GlcNAc(b1-3)Gal(b1-4)[Fuc(a1-3)]GlcNAc(b1-3)Gal(b1-4)[Fuc(a1-3)]GlcNAc
# Outline: as §1
# [28] = target: Fuc(a1-2)Gal6S(b1-4)Glc
# Outline: as §1
# [29] = target: Fuc(a1-2)Gal6S(b1-4)Glc6S
# Outline: as §1
# [30] = target: Fuc(a1-2)Gal6S(b1-4)GlcNAc
# Outline: as §1
# [31] = target: Fuc(a1-2)[Gal(a1-3)]Gal
# Outline: as §1
# [32] = target: Fuc(a1-2)[Gal(a1-3)]Gal(b1-3)GlcNAc
# Outline: as §1
# [33] = target: Fuc(a1-2)[Gal(a1-3)]Gal(b1-3)GlcNAc(b1-2)Man(a1-3)[Fuc(a1-2)[Gal(a1-3)]Gal(b1-3)GlcNAc(b1-2)Man(a1-6)]Man(b1-4)GlcNAc(b1-4)GlcNAc
# Outline: as §1
# [34] = target: Fuc(a1-2)[Gal(a1-3)]Gal(b1-4)Glc
# Outline: as §1
# [35] = target: Fuc(a1-2)[Gal(a1-3)]Gal(b1-4)GlcNAc
# Outline: as §1
# [36] = target: Fuc(a1-2)[Gal(a1-3)]Gal(b1-4)GlcNAc(b1-2)Man(a1-3)[Fuc(a1-2)[Gal(a1-3)]Gal(b1-4)GlcNAc(b1-2)Man(a1-6)]Man(b1-4)GlcNAc(b1-4)GlcNAc
# Outline: as §1
# [37] = target: Fuc(a1-2)[Gal(a1-3)]Gal(b1-4)[Fuc(a1-3)]GlcNAc
# Outline: as §1
binder,measurement,setting,value
"PEB3 (Campylobacter jejuni), Q0PBL7 (protein) MKKIITLFGACALAFSMANADVNLYGPGGPHTALKDIANKYSEKTGVKVNVNFGPQATWFEKAKKDADILFGASDQSALAIASDFGKDFNVSKIKPLYFREAIILTQKGNPLKIKGLKDLANKKVRIVVPEGAGKSNTSGTGVWEDMIGRTQDIKTIQNFRNNIVAFVPNSGSARKLFAQDQADAWITWIDWSKSNPDIGTAVAIEKDLVVYRTFNVIAKEGASKETQDFIAYLSSKEAKEIFKKYGWRE",glycan array binding signal (z-score),[1],-0.558
same,glycan array binding signal (z-score),[2],0.049
same,glycan array binding signal (z-score),[3],0.632
same,glycan array binding signal (z-score),[4],0.04
same,glycan array binding signal (z-score),[5],0.519
same,glycan array binding signal (z-score),[6],-0.105
same,glycan array binding signal (z-score),[7],0.671
same,glycan array binding signal (z-score),[8],0.854
same,glycan array binding signal (z-score),[9],0.377
same,glycan array binding signal (z-score),[10],0.665
same,glycan array binding signal (z-score),[11],0.12
same,glycan array binding signal (z-score),[12],7.5
same,glycan array binding signal (z-score),[13],0.672
same,glycan array binding signal (z-score),[14],0.638
same,glycan array binding signal (z-score),[15],2.31
same,glycan array binding signal (z-score),[16],0.179
same,glycan array binding signal (z-score),[17],0.932
same,glycan array binding signal (z-score),[18],0.611
same,glycan array binding signal (z-score),[19],0.952
same,glycan array binding signal (z-score),[20],0.234
same,glycan array binding signal (z-score),[21],2.43
same,glycan array binding signal (z-score),[22],-0.26
same,glycan array binding signal (z-score),[23],0.544
same,glycan array binding signal (z-score),[24],-0.866
same,glycan array binding signal (z-score),[25],4.64
same,glycan array binding signal (z-score),[26],-0.389
same,glycan array binding signal (z-score),[27],0.435
same,glycan array binding signal (z-score),[28],-0.555
same,glycan array binding signal (z-score),[29],-0.731
same,glycan array binding signal (z-score),[30],-0.248
same,glycan array binding signal (z-score),[31],-0.136
same,glycan array binding signal (z-score),[32],-0.229
same,glycan array binding signal (z-score),[33],0.362
same,glycan array binding signal (z-score),[34],-1.35
same,glycan array binding signal (z-score),[35],0.283
same,glycan array binding signal (z-score),[36],1.42
same,glycan array binding signal (z-score),[37],-0.405

# Three records drawn at random from those above, as already listed:
binder,measurement,setting,value
"PEB3 (Campylobacter jejuni), Q0PBL7 (protein) MKKIITLFGACALAFSMANADVNLYGPGGPHTALKDIANKYSEKTGVKVNVNFGPQATWFEKAKKDADILFGASDQSALAIASDFGKDFNVSKIKPLYFREAIILTQKGNPLKIKGLKDLANKKVRIVVPEGAGKSNTSGTGVWEDMIGRTQDIKTIQNFRNNIVAFVPNSGSARKLFAQDQADAWITWIDWSKSNPDIGTAVAIEKDLVVYRTFNVIAKEGASKETQDFIAYLSSKEAKEIFKKYGWRE",glycan array binding signal (z-score),[24],-0.866
same,glycan array binding signal (z-score),[11],0.12
same,glycan array binding signal (z-score),[26],-0.389
